Laboratory results: patent US8980544B2, “Boronic and borinic acid compounds as inhibitors of sulfenic acid-containing proteins” (The Penn State Research Foundation, priority 2012, dated 2015)

Columns and labels:
[1] = Isothermal titration calorimetry (ITC) of Compound 2 into the sodium salt of 1; assay type: binding; conditions: 15% (v/v) acetonitrile-ddH2O, 25° C.
[2] = Spectrophotometric (UV/vis) titration of boronic acids 2 against the sodium salt of sulfenic acid 1, incl. reversibility with NaOH; conditions: 0.8 mM sodium salt of 1, 4.5 mM boronic acid, then 4.5 mM NaOH; 15% (v/v) acetonitrile-water, 22° C.

| Structure (SMILES) | Averaged ΔH [1] [kcal/mol] | Averaged ΔS (cal/mol/K) [1] [cal/mol/K] | Reversibility of complex formation with sulfenic acid 1 [2] |
| --- | --- | --- | --- |
| OB(O)c1cccc(Br)c1 [Compound 2d, 3-Bromobenzene-boronic acid] | -4.7 ± 0.4 | −3.8 ± 1.9 | reversible process that can be reversed by hydroxide |
| OB1OCc2ccccc21 [Compound 2A, 2-(hydroxymethyl)benzeneboronic acid hemiester] | -6.6 ± 0.3 | −4.4 ± 0.3 |  |
| OB(O)c1ccccc1 [Compound 2g, phenylboronic acid] | -9.3 ± 0.8 | −12 ± 6 |  |
